Results reported in PMC7819943, “Rice protein-binding microarrays: a tool to detect cis-acting elements near promoter regions in rice”.
This is one part of the list.

The chains behind the UniProt entries cited, without tags or fusion partners.
UniProt Q0JBA9, entry or part of it: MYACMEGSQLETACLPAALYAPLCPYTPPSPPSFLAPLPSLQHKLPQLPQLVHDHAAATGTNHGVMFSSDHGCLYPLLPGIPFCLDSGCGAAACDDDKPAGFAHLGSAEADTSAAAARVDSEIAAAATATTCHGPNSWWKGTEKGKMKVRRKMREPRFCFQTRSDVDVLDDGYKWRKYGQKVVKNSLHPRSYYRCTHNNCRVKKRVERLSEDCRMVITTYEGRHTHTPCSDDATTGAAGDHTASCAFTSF

molecular target: OsWRKY34 (Oryza sativa, UniProt Q0JBA9 1-250); assay: protein-binding microarray (RPBM); PBS, 2% BSA, 51.3 ng/ul salmon testes DNA, 50 uM zinc acetate, 200 nM TF, 25 C, 1 h; high values mean tight binding; conditions: protein: recombinant; tags: N-terminal polyhistidine and DsRed monomer fusion (pET32a); label: CyDye5-dUTP incorporated in the synthesized complementary strand; 3' TTTTT single-stranded linker to array surface; dsDNA, one strand shown
Method in brief: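 Per-feature fluorescence intensity (arbitrary units), read on an Axon 4000B scanner, is the binding signal. Transcription factors carrying an N-terminal polyhistidine tag and DsRed fusion were expressed in E. coli BL21-CodonPlus and purified on Ni–NTA. A custom Agilent array, made double-stranded by primer extension with Cy5-dUTP and blocked with 2% BSA, was incubated with 200 nM protein in PBS, 2% BSA, salmon testes DNA and 50 µM zinc acetate at 25 °C for 1 h and then washed.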

Going from “GAATTTTTTTTTTCCGCTCGATCGAGTTCGCTTCGAATTCCGGAGTCACCTAGTGCAG” to “ACTTTTCTTCGATCGGCACCACCACCTTGTCCCGTGCCGTCGGAGTCACCTAGTGCAG”, the binding signal rises from 10500 fluorescence intensity (a.u.) to 12200 fluorescence intensity (a.u.).

First: CACCACGTACTTACCACCACCACCGCGCGCTCGATCGATCCGGAGTCACCTAGTGCAG
Second: AATCGAATGTGTTAGGTCTATTTTCGCACATGTTTGGTCACGGAGTCACCTAGTGCAG
The binding signal of the first is higher: 12900 fluorescence intensity (a.u.) for the first, 8060 fluorescence intensity (a.u.) for the second.

Compared with “CCTCCCTGACGTCACGGTCGCCGTCTTTATCTCTGCAACGCGGAGTCACCTAGTGCAG”, “GGTATTTTGGTTCTTTTATATTCACCTTGGAAAATTATCTCGGAGTCACCTAGTGCAG” is higher in binding signal: 8050 fluorescence intensity (a.u.) for the first, 9690 fluorescence intensity (a.u.) for the second.

First: GTGGTATATTTGGATGCTTCCCTTTCACGCAAGCGCGTTTCGGAGTCACCTAGTGCAG
Second: ACTGCTCGCTGGGGATGCGGCTTCCTGTCCCGATACCTGTCGGAGTCACCTAGTGCAG
The binding signal of the first is higher: 14100 fluorescence intensity (a.u.) for the first, 8040 fluorescence intensity (a.u.) for the second.

Compared with “AAATAGCCCCATGTTCATTGTTTGCCGCACCACAGCGTAGCGGAGTCACCTAGTGCAG”, “CCTATCCACCGCTACCTTGTCTCGTTGGTTTGCAGCTTTACGGAGTCACCTAGTGCAG” is lower in binding signal: 10100 fluorescence intensity (a.u.) for the first, 8610 fluorescence intensity (a.u.) for the second.

First: GCCACCGCTCAACCGCCTCCGCCGATCCGCCTCCGACGCTCGGAGTCACCTAGTGCAG
Second: ACGCGCGCCCGGTTCACGCTTTGCCTAGATCGCGTATGTACGGAGTCACCTAGTGCAG
The binding signal of the first is higher: 8500 fluorescence intensity (a.u.) for the first, 8280 fluorescence intensity (a.u.) for the second.

Compared with “CAGGTCAACCGCAATTCTTTCGTCCTCGGTCACTTTTATTCGGAGTCACCTAGTGCAG”, “CGCATTGATTTTTTTTTCTATTAAACCTGGGGTTAACTTTCGGAGTCACCTAGTGCAG” is lower in binding signal: 12100 fluorescence intensity (a.u.) for the first, 9350 fluorescence intensity (a.u.) for the second.

First: GCCGATCTCCATCACCACCTGCGGCCTCCACTGCCCAATCCGGAGTCACCTAGTGCAG
Second: TTTGGTCAAAGTCAAACTGCTTCTAGTTTGACTAAATTTACGGAGTCACCTAGTGCAG
The binding signal of the first is lower: 10600 fluorescence intensity (a.u.) for the first, 17800 fluorescence intensity (a.u.) for the second.

Going from “TCCTCGCCGCTCCGATTTGTTATCCTCCTCGCACATGTATCGGAGTCACCTAGTGCAG” to “GCCCTGTGTGTTCACCGCCGCTCAACCATCGCCTCGGCCGCGGAGTCACCTAGTGCAG”, the binding signal falls from 13300 fluorescence intensity (a.u.) to 10700 fluorescence intensity (a.u.).

Compared with “GCTCCTCCTCCTCTTCCCGCCTCACCGCCGCACCACCTCTCGGAGTCACCTAGTGCAG”, “GGAGCCAGTAGTTGTCTATACTATTAAACTTGCTTTTATACGGAGTCACCTAGTGCAG” is lower in binding signal: 8550 fluorescence intensity (a.u.) for the first, 8460 fluorescence intensity (a.u.) for the second.

First: TCTCTCTCTCTCACTCGCTCGCTTCTCGGGGCGCCTCCTCCGGAGTCACCTAGTGCAG
Second: AAAAGGGACCCCATTCTTATTTTTTCCTGTGTTTTGTAATCGGAGTCACCTAGTGCAG
The binding signal of the first is higher: 9420 fluorescence intensity (a.u.) for the first, 8560 fluorescence intensity (a.u.) for the second.

Compared with “ATGTCCTTATGCCAACCTCCATTTTCCAGCTCAATCTTTTCGGAGTCACCTAGTGCAG”, “GACTCGGCGGCCTCTGCTCCTCCGCTCGTTCCTCTCCCGACGGAGTCACCTAGTGCAG” is higher in binding signal: 9420 fluorescence intensity (a.u.) for the first, 11100 fluorescence intensity (a.u.) for the second.

Compared with “CACACTCACATATATATATACACACAAACACACAAGCATACGGAGTCACCTAGTGCAG”, “TCCATACCAATCTCATCAACCATGAACCACCCGCGCCCGACGGAGTCACCTAGTGCAG” is higher in binding signal: 8050 fluorescence intensity (a.u.) for the first, 8370 fluorescence intensity (a.u.) for the second.

Going from “TCCGTTATATATTCTCACCGTATTGTGCATTGGACCTTTTCGGAGTCACCTAGTGCAG” to “ACCGAATTCTATTGTACTCCATCATTTTCTACTAGTTGCGCGGAGTCACCTAGTGCAG”, the binding signal falls from 11800 fluorescence intensity (a.u.) to 10500 fluorescence intensity (a.u.).

Compared with “GCGCCGACTGCCCGTCCGCCCCGTTGCTGCTGTGCGCACTCGGAGTCACCTAGTGCAG”, “GGTTCTGGGTTAAGTATTATAAACTATCACGTGCATGTTTCGGAGTCACCTAGTGCAG” is higher in binding signal: 8290 fluorescence intensity (a.u.) for the first, 8670 fluorescence intensity (a.u.) for the second.

First: TTGTATCGTTTTGGTAGGGGATGGGATGTGCTATACGGGGCGGAGTCACCTAGTGCAG
Second: GACACACGATTTCTTAAGGCTCATACTTTATGCTTGTCTACGGAGTCACCTAGTGCAG
The binding signal of the first is higher: 11700 fluorescence intensity (a.u.) for the first, 11300 fluorescence intensity (a.u.) for the second.

First: CAATCGATTCTCACATCCATCCATCTGCCTATCTATCTCTCGGAGTCACCTAGTGCAG
Second: TAGAGGGATGGGCTATTAAGTGTTTTATTTGGTTGGGAGACGGAGTCACCTAGTGCAG
The binding signal of the first is lower: 9080 fluorescence intensity (a.u.) for the first, 15200 fluorescence intensity (a.u.) for the second.

Compared with “TGGTTGGTGGTGGTTAGCTAACACGCGGCATCTTCTCCTCCGGAGTCACCTAGTGCAG”, “TTCCATCCATCGGCTCTGGTGTACATGCATTATCCATATCCGGAGTCACCTAGTGCAG” is higher in binding signal: 8170 fluorescence intensity (a.u.) for the first, 8700 fluorescence intensity (a.u.) for the second.

Going from “AGTATATGTTATGGCTTATATATTGTGGACGCATCGTATCCGGAGTCACCTAGTGCAG” to “TCAGCCGCATCTCTACTACTACTACTACTACCCTTGCTCTCGGAGTCACCTAGTGCAG”, the binding signal rises from 8420 fluorescence intensity (a.u.) to 10400 fluorescence intensity (a.u.).

Compared with “GGGGTAGTGAGGATAACGTGTGGGTCCGCGCGGGCCCACCCGGAGTCACCTAGTGCAG”, “TTCCTCCTCCGGCCACCTCCGCCGGGCGTTGACCCCTACGCGGAGTCACCTAGTGCAG” is higher in binding signal: 8230 fluorescence intensity (a.u.) for the first, 9030 fluorescence intensity (a.u.) for the second.

First: TATTGTTTAGTTGGGAAAAAAATTTGGGGTTGGTTGTCACCGGAGTCACCTAGTGCAG
Second: CAACCCACTCCGTTTCTCTCTCTTACCTAAGCCGCGTCCTCGGAGTCACCTAGTGCAG
The binding signal of the first is higher: 10400 fluorescence intensity (a.u.) for the first, 9460 fluorescence intensity (a.u.) for the second.
